Patent US5424396A, “Antimicrobial peptide and antimicrobial agent” (Morinaga Milk Industry Co., Ltd., priority 1991, dated 1995)
Not every detail of the peptide structures is certain; ends, links or a residue may be inferred. Ends that are not written are not given here.

Tested on: Listeria monocytogenes IDF 1b
Assay: Antimicrobial spectrum, minimum inhibitory concentration (LM)
Assay type: cell-based
Details: against the tested Gram-positive bacteria LM and SA

## FQWQRN [Sample No. 1, Phe-Gln-Trp-Gln-Arg-Asn]
  concentration at which antimicrobial activity was shown: up to 250 μM
